2 molecules from article PMC8745574 can be followed below.

These are yes or no findings as the source states them, for the method shown. Binding seen in cells or lysates may run through a third protein.

The target of assay [1] is HA-tagged DOMINO1, in vitro translated (Arabidopsis thaliana). The assay is described as follows: co-IP; both proteins translated in vitro in rabbit reticulocyte lysate; 35S-Met labelled prey mixed with c-myc- or HA-tagged bait in 25 mM HEPES pH 7.5, 150 mM KCl, 5 mM MgCl2, 0.1% Nonidet P-40; anti-c-myc or anti-HA magnetic beads.
The target of assay [2] is nYFP-DOMINO1 (Arabidopsis thaliana). The assay is described as follows: split reporter; BiFC, pSAT1-nEYFP-C1/pSAT1-cEYFP-C1-B constructs in Arabidopsis protoplasts, confocal microscopy 16 h after transfection.

B1: LSm4, radioactively labelled, in vitro translated (protein, UniProt F4K4E3 1-129)
chain: MLPLSLLKTAQGHPMLVELKNGETYNGHLVNCDTWMNIHLREVICTSKDGDRFWRMPECYIRGNTIKYLRVPDEVIDKVQEEKTRTDRKPPGVGRGRGRGVDDGGARGRGRGTSMGKMGGNRGAGRGRG
modifications: 35S-Met labelled
On to B1, for which the binding entry in assay [1] is reported as “no binding”.

B2: LSm4 BiFC construct (protoplasts) (protein, UniProt F4K4E3 1-129)
chain: MLPLSLLKTAQGHPMLVELKNGETYNGHLVNCDTWMNIHLREVICTSKDGDRFWRMPECYIRGNTIKYLRVPDEVIDKVQEEKTRTDRKPPGVGRGRGRGVDDGGARGRGRGTSMGKMGGNRGAGRGRG
B2: the binding result in assay [2] is recorded as “no binding”.
